Experiment: general procedure: Fmoc solid-phase peptide synthesis; 2-CTC resin (1.10 mmol/g) for protected fragments; Wang resin for semaglutide; DIC/HOBT; TBTU/HOBT/DIEA

In the case of semaglutide, the step yield (purification step, purification yield) is reported as 64.20% and the “final HPLC purity” value (whole synthesis, HPLC) is reported as 99.8%.

Reference: patent US20230133716 (published 2023)
